Data as given in PubChem BioAssay AID1224830 (NIAID, 2016)

Test: 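Genes whose knock-down alters the TNF-alpha reporter response to LPS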 (primary screen)
Cells: human THP-1 monocytic leukaemia cells, TNF dual-luciferase reporter clone, PMA-differentiated to macrophage-like cells
Reagent: siRNA pool against human genes, 50 nM
Timing: LPS for 4 h, given about 3 days after siRNA transfection
Treatment: bacterial LPS (TLR4 ligand), 10 ng/ml
Measured: 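Ratio of firefly to renilla light, scaled to the plate median and expressed as a robust z-score per replicate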
Reading the numbers: TNF reporter robust z-score: higher = stronger TNF reporter response to LPS
Call rule: 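Each well counts as active if its z-score is over 2.8 or under -1.5; controls are left without a call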
In all, the deposit lists about 18,000 reagents; below is a part drawn at random. About 2,900 of them (16%) were called active. 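Calls are made per well; low scores hint the gene aids the LPS response, high scores that it dampens it.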 Unmarked entries are inactive. Repeated entries: four replicate wells of each siRNA pool. No sequences are given here.

Against CACNA2D1 the deposit lists TNF reporter robust z-score -0.47.
Depletion of CACNA2D1 gave: TNF reporter robust z-score -1.1.
After knock-down of CACNA2D1 the results were TNF reporter robust z-score -1.36.
With knock-down of CACNA2D1, the screen gave TNF reporter robust z-score -1.06.
Against HLA-DQA2 the deposit lists TNF reporter robust z-score -1.97 (active).
Knock-down of HLA-DQA2 came out at: TNF reporter robust z-score -1.34.
HLA-DQA2 scored TNF reporter robust z-score -1.48.
After knock-down of HLA-DQA2, the record shows TNF reporter robust z-score -1.85 (active).
Silencing of CYP20A1 came out at: TNF reporter robust z-score -0.84.
CYP20A1 gave TNF reporter robust z-score -0.06.
CYP20A1 scored TNF reporter robust z-score -0.6.
With knock-down of CYP20A1, the screen gave TNF reporter robust z-score 0.54.
RALGPS1 scored TNF reporter robust z-score 0.2.
After knock-down of RALGPS1 the results were TNF reporter robust z-score -0.05.
For RALGPS1, the values are TNF reporter robust z-score -0.14.
After knock-down of RALGPS1, the record shows TNF reporter robust z-score 0.03.
DMKN showed TNF reporter robust z-score -0.87.
Against DMKN the deposit lists TNF reporter robust z-score 0.05.
For DMKN, the entry reads TNF reporter robust z-score 0.01.
Silencing of DMKN came out at: TNF reporter robust z-score 0.68.
TUT1 showed TNF reporter robust z-score -0.58.
TUT1 gave TNF reporter robust z-score 0.55.
Against TUT1, the values are TNF reporter robust z-score 0.15.
Silencing of TUT1 gave: TNF reporter robust z-score 1.
For MYG1 the deposit lists TNF reporter robust z-score -0.41.
MYG1 gave TNF reporter robust z-score -0.06.
For MYG1, the values are TNF reporter robust z-score -0.62.
After knock-down of MYG1, the screen gave TNF reporter robust z-score -1.
Silencing of BFSP1 came out at: TNF reporter robust z-score 2.21.
BFSP1 scored TNF reporter robust z-score 3.2 (active).
Against BFSP1, the entry reads TNF reporter robust z-score 0.72.
Against BFSP1, the values are TNF reporter robust z-score 1.1.
For RAET1E the deposit lists TNF reporter robust z-score 1.05.
After knock-down of RAET1E the results were TNF reporter robust z-score 3.2 (active).
For RAET1E the deposit lists TNF reporter robust z-score 1.11.
RAET1E scored TNF reporter robust z-score 1.58.
For RAB4A the deposit lists TNF reporter robust z-score -1.06.
Against RAB4A, the entry reads TNF reporter robust z-score -0.36.
Knock-down of RAB4A gave: TNF reporter robust z-score -0.66.
After knock-down of RAB4A, the screen gave TNF reporter robust z-score -0.57.
Silencing of EFCAB6 gave: TNF reporter robust z-score -1.32.
After knock-down of EFCAB6, the screen gave TNF reporter robust z-score -0.91.
EFCAB6 showed TNF reporter robust z-score -0.86.
Silencing of EFCAB6 came out at: TNF reporter robust z-score -0.56.
Knock-down of FGF18 gave: TNF reporter robust z-score -0.1.
Knock-down of FGF18 resulted in: TNF reporter robust z-score 2.17.
Against FGF18 the deposit lists TNF reporter robust z-score 1.77.
Knock-down of FGF18 came out at: TNF reporter robust z-score 1.57.

A run of entries from the list above, as a working copy:
RALGPS1 | TNF reporter robust z-score: -0.14
RALGPS1 | TNF reporter robust z-score: 0.03
